According to US10918643B2, “No-donors for the treatment of cerebrovascular vasospasms after brain hemorrhage” (Westfaelische Wilhelms-Universitaet Muenster, priority 2015, dated 2021):
At least one structure is not confirmed: it was looked up by name or label, or the drawing left a doubt.

Assays:
[1] = tested on: vasospasm and DCI after SAH; conditions: SAH patients despite nimodipine (Frontera et al. 2009); cited from earlier work
[2] = tested on: delayed cerebral ischemia (DCI) after aneurismal SAH; experiment: Clinical neurological status and outcome (Hunt&Hess, WFNS, GCS, mNIH-SS, mRS) of the SAH patient; conditions: within several hours after starting Nimodipine treatment and drainage of 80 ml CSF; admission grade III

COCCOC(=O)C1=C(C)NC(C)=C(C(=O)OC(C)C)C1c1cccc([N+](=O)[O-])c1 (stereo not shown) [Nimodipine]
DCIs, patients [1]: 27-37%
severe morbidity, patients [1]: 30-40%
vasospasm-generated infarcts, patients [1]: 20-50%
Hunt&Hess and WFNS grades [2]: I-II
